Measured values reported in article PMC2568875.
These are yes or no findings as the source states them, for the method shown. In cells and extracts the contact can be indirect. Some binding calls cover weakened binding; strength is not graded here.

By UniProt entry, the sequences of proteins in these tests, tags left out. Residues count along the entry.
UniProt Q00960, residues 27-1482: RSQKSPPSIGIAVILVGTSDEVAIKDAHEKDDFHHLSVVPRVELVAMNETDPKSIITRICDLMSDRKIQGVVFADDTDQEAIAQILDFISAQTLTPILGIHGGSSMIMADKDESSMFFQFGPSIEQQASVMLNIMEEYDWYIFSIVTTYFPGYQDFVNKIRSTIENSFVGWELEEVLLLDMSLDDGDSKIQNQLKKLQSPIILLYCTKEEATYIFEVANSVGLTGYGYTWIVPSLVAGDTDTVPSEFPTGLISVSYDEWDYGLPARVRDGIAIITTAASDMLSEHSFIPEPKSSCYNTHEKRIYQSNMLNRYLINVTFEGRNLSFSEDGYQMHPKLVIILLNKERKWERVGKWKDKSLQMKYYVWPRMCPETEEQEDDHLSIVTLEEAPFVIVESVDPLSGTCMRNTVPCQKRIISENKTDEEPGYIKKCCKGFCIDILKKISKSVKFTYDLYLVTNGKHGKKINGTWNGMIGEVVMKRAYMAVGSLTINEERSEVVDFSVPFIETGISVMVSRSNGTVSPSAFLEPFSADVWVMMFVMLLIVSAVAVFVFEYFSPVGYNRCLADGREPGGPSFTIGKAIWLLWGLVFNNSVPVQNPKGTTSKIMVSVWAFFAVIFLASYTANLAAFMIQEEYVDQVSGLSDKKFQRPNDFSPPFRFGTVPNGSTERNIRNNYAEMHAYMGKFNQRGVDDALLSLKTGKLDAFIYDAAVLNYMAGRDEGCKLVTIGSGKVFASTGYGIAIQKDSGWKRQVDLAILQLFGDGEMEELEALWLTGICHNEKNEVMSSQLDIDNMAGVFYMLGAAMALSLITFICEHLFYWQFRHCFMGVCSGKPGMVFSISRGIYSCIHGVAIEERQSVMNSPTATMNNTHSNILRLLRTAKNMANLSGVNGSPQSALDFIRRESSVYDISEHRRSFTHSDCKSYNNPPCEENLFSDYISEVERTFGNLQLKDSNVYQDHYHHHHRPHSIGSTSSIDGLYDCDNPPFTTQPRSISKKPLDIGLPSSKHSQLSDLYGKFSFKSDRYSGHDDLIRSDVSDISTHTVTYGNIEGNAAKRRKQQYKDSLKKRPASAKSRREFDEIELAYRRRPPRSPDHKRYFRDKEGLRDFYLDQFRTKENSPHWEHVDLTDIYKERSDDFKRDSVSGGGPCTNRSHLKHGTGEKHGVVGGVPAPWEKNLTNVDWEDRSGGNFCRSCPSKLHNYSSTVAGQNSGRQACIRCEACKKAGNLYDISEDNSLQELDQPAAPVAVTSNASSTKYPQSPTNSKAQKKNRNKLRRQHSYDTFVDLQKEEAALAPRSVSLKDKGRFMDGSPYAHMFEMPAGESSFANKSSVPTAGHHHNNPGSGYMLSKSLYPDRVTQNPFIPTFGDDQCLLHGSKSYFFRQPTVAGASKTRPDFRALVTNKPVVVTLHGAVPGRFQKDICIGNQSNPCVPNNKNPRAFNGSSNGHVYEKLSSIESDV
UniProt P09759, residues 18-984: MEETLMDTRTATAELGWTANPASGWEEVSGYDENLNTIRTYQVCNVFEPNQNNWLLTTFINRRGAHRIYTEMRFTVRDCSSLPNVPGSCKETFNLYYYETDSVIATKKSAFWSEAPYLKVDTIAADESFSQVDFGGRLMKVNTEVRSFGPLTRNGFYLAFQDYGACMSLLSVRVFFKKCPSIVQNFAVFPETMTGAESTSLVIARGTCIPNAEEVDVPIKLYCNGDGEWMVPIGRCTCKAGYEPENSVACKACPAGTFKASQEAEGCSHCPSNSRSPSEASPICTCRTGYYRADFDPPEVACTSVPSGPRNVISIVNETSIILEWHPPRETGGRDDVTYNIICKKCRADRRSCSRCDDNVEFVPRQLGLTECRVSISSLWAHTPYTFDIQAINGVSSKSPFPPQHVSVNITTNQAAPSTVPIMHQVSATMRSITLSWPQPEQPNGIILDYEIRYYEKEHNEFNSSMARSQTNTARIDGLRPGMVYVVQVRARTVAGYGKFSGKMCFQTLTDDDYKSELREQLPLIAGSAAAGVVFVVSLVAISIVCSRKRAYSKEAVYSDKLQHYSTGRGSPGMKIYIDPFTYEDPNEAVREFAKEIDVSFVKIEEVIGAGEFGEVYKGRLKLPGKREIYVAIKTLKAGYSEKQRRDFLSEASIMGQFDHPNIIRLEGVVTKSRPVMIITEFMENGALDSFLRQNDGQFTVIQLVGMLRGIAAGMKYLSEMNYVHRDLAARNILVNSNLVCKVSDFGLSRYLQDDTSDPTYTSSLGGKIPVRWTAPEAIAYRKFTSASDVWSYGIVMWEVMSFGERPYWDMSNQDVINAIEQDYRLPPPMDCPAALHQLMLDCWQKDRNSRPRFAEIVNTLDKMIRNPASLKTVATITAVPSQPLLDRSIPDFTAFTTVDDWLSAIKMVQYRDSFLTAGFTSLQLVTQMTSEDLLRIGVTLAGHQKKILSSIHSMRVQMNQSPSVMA

Biological target: NR2B subunit of the NMDA receptor (rat (endogenous in spinal cord dorsal horn)) (UniProt Q00960)
Test: co-IP; NR2B immunoprecipitated (5 ug rabbit anti-NR2B, overnight at 4 °C, protein-A sepharose) from 500 ug lysate of rat lumbar dorsal horn in 1% NP-40, 20 mM Tris pH 8, 137 mM NaCl; blots for phospho-Src (rats given intrathecal saline, ephrinB2-Fc, or PP2 then ephrinB2-Fc) or EphB1 (naive rats)

binding: binds
Substance: EphB1 receptor (from UniProt P09759 18-984)
